Reference: article PMC7503767, “Alkoxyamines Designed as Potential Drugs against Plasmodium and Schistosoma Parasites” (Molecules, 2020)

Test system: Vero cells
Assay: Cytotoxicity assay (MTT)
Settings: ratio cytotoxicity (Vero)/activity on Plasmodium
Experimental: Vero cells were cultured in MEM (Dutscher, Brumath, France) supplemented with 10% fetal bovine serum, 1× non-essential amino acids, 100 U/mL, 100 µg/mL penicillin/streptomycin, and 2 mM L-glutamine at 37 °C in a humidified 5% CO2 atmosphere. […] At this time, each well was microscope-examined for detection of possible precipitate formation prior to remove the supernatant by flicking the plate. 100 µL of a 0.5 mg/mL PBS-dissolved MTT tetrazolium (stock solution at 5 mg/mL) was then added to each well [48]. The plates were then incubated for 1 h at 37 °C and 5% CO2 prior to removing the supernatant and adding 100 µL of DMSO. Plates were gently shaken to dissolve formazan crystals resulting from the MTT tetrazolium reduction by living cells and read at 570 nm with BioTek µQuant Microplate Spectrophotometer.

Compound	Selectivity Index
CC(ON1C(C)(C)CCCC1(C)C)c1ccncc1 (stereo not shown) [9a]	3
CCOP(=O)(OCC)C(N(OC(C)c1ccnc2c1ccc1cccnc12)C(C)(C)C)C(C)(C)C (stereo not shown) [1K]	1
CCOP(=O)(OCC)C(N(OC(C)c1ccc2ccc3cccnc3c2n1)C(C)(C)C)C(C)(C)C (stereo not shown) [1J]	2
CCOP(=O)(OCC)C(N(OC(C)c1ccc2ccc3cccnc3c2n1)C(C)(C)CO)C(C)(C)C (stereo not shown) [2J]	3
